Results deposited as PubChem BioAssay AID1053208 (Peter MacCallum Cancer Centre, 2014).
Here is an unselected part of about 17,000 reagents tested. Of all reagents, 788 (4.7%) got an active call. 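Calls rest on z-score classes alone; an extra cut-off of viability at most 70% of control was not applied to them.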 The numbers tell different reagents against one gene apart. Further read-outs or replicates are left out here.

Assay: 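Synthetic lethal interactions between gene loss and doxorubicin in osteosarcoma cells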 (primary screen)
Cells: mouse osteosarcoma cells, early-passage culture from an engineered mouse model of fibroblastic bone tumour
Knock-down reagent: siRNA pool against mouse genes, 40 nM
Timing: about 120 h (48 h before drug, then 72 h with drug)
Conditions: doxorubicin 100 nM for 72 h, roughly 30-40% inhibitory dose
Measured: 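Luminescent ATP signal taken as viability with or without 100 nM doxorubicin for 72 h; mean of two wells set against non-targeting siRNA and turned into robust z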
Direction: viability z-score with doxorubicin: higher = more viable cells under doxorubicin; viability z-score without drug: higher = more viable cells with knock-down alone
Rule for the call: 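a pool counts as active when its viability z-score with doxorubicin is -2 or below and its z-score without drug lies between -2 and 2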

target gene | reagent | combined z-score class | viability z-score with doxorubicin | viability z-score without drug | call
Klf8 | 1 | no change with or without drug | 0 | 0.34 | inactive
AY036118 | 1 | no change with or without drug | 0.11 | -0.67 | inactive
P3h1 | 1 | no change with or without drug | 0.22 | -1.01 | inactive
Tekt2 | 1 | no change with or without drug | 0.67 | -1.18 | inactive
Acsl6 | 1 | no change with or without drug | -0.9 | -0.34 | inactive
Cib2 | 1 | no change with or without drug | 1.8 | 0.17 | inactive
Park7 | 1 | no change with or without drug | 1.57 | 0.17 | inactive
Fpr-rs3 | 1 | no change with or without drug | -0.22 | 1.18 | inactive
Serpini2 | 1 | no change with or without drug | 1.35 | 1.52 | inactive
Gfra1 | 1 | no change with or without drug | 0.22 | -0.51 | inactive
Unc50 | 1 | no change with or without drug | -0.11 | -0.17 | inactive
Palm | 1 | no change with or without drug | -1.35 | -0.17 | inactive
Zfp280c | 1 | no change with or without drug | 0.11 | -0.51 | inactive
Actr10 | 1 | no change with or without drug | 0 | 0.17 | inactive
Oasl2 | 1 | no change with or without drug | 0.67 | -0.51 | inactive
Trmt11 | 1 | no change with or without drug | -0.22 | -1.18 | inactive
Trim42 | 1 | low cell count with doxorubicin only | -2.02 | -1.52 | active
Csnk1g3 | 1 | low cell count with doxorubicin only | -2.47 | -1.52 | active
Csnk1g3 | 2 | no change with or without drug | -0.67 | 1.18 | inactive
Atoh8 | 1 | low cell count with doxorubicin only | -2.14 | -0.17 | active
Tent5b | 1 | no change with or without drug | 1.12 | 0.67 | inactive
Cyp21a1 | 1 | no change with or without drug | -0.11 | 1.85 | inactive
9430041O17RIK | 1 | low cell count with doxorubicin only | -3.37 | 0.84 | active
Or2y16 | 1 | low cell count without drug only | -1.24 | -2.02 | inactive
Sec24c | 1 | no change with or without drug | 0.9 | 0.17 | inactive
Slc31a2 | 1 | low cell count with doxorubicin only | -2.02 | -1.52 | active
Atoh7 | 1 | no change with or without drug | -0.22 | -0.84 | inactive
Ces2c | 1 | low cell count with doxorubicin only | -2.7 | 0.51 | active
Ufd1 | 1 | low cell count with doxorubicin only | -2.47 | -1.85 | active
Megf11 | 1 | no change with or without drug | 0.9 | 0.51 | inactive
Fgf22 | 1 | no change with or without drug | 0.11 | 0.34 | inactive
Poglut3 | 1 | no change with or without drug | -0.22 | -0.51 | inactive
Nudt19 | 1 | no change with or without drug | 1.69 | 0.17 | inactive
Rps27l | 1 | no change with or without drug | -0.22 | -0.17 | inactive
Hp | 1 | no change with or without drug | 0.9 | -0.17 | inactive
Pramel1 | 1 | no change with or without drug | -1.35 | -1.52 | inactive
Tmem177 | 1 | no change with or without drug | 1.35 | 1.85 | inactive
Kcnmb2 | 1 | no change with or without drug | -1.35 | -0.17 | inactive
St8sia6 | 1 | no change with or without drug | 0 | -0.51 | inactive
Proc | 1 | no change with or without drug | 0.67 | 0.17 | inactive
Cyb5r1 | 1 | no change with or without drug | 0.9 | 0.84 | inactive
Sorbs1 | 1 | no change with or without drug | -0.67 | -0.34 | inactive
Usp36 | 1 | no change with or without drug | 0.45 | 0.51 | inactive
R3hdm4 | 1 | no change with or without drug | -0.45 | 0.17 | inactive
Rab5a | 1 | no change with or without drug | 1.01 | -0.51 | inactive
Dctn6 | 1 | high cell count with doxorubicin only | 2.02 | 1.52 | inactive
Myh10 | 1 | no change with or without drug | -0.45 | 0.17 | inactive
Gpatch2 | 1 | no change with or without drug | -0.45 | -0.17 | inactive
Bbs7 | 1 | no change with or without drug | 0.45 | 0.34 | inactive
Ints13 | 1 | no change with or without drug | 1.8 | 1.18 | inactive

4 neighbouring records already listed:
target gene | reagent | combined z-score class | viability z-score with doxorubicin | viability z-score without drug | call
Ces2c | 1 | low cell count with doxorubicin only | -2.7 | 0.51 | active
Ufd1 | 1 | low cell count with doxorubicin only | -2.47 | -1.85 | active
Megf11 | 1 | no change with or without drug | 0.9 | 0.51 | inactive
Fgf22 | 1 | no change with or without drug | 0.11 | 0.34 | inactive
